# Data published in doi:10.1101/2022.06.09.495453.
# Amino acid sequences for entries named in this document (tags omitted). A change or cut given only in a name is not applied to a line headed by its entry.
# UniProt Q9UI95: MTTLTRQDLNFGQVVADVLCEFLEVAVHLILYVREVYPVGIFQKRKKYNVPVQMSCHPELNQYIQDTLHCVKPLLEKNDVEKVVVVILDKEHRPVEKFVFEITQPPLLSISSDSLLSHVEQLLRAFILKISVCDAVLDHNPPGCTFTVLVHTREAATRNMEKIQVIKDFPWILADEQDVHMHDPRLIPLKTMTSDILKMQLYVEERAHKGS
# Legend:
# MBP-SHLD3^45-60 (human) = target: T1, MBP-SHLD3^45-60 (human) (UniProt Q6ZNX1); experiment: pull-down
# T1 sequence: DGSKLPLRPKRSPPVI
# GST-SHLD3^1-62 (human) = target: T2, GST-SHLD3^1-62 (human) (UniProt Q6ZNX1); experiment: SEC
# T2 sequence: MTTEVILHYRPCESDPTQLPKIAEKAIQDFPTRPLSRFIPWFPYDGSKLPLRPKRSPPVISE
# REV7^ΔN (human) = REV7^ΔN (human) (UniProt Q9UI95); experiment: SEC
Substance,binding (MBP-SHLD3^45-60 (human)),binding (GST-SHLD3^1-62 (human)),binding (REV7^ΔN (human))
REV7^ΔC (from UniProt Q9UI95),no binding (tested: 2 μM),no binding (tested: 5 μM),binds
REV7^ΔN (from UniProt Q9UI95),binds,binds,

# Results are given in words; binding and its absence hold for the method and conditions named. A result given as binding can be weak or reduced; the word gives no strength. For some assays here: Where a sequence is shown, tags or fusion partners need not be part of it.
